According to patent publication US20050053993A1, “Uses of an endothelial cell receptor” (priority 2002, published 2005):
No constants are given. Whether binding was seen depends on the method and setting. Binding seen in cells or lysates may run through a third protein. Some results given as binding are weak or reduced against the parent protein; the word gives no strength.

Chains of the proteins cited; added tags and fusions are not shown. Residues count along the entry.
UniProt P11021, residues 19-654: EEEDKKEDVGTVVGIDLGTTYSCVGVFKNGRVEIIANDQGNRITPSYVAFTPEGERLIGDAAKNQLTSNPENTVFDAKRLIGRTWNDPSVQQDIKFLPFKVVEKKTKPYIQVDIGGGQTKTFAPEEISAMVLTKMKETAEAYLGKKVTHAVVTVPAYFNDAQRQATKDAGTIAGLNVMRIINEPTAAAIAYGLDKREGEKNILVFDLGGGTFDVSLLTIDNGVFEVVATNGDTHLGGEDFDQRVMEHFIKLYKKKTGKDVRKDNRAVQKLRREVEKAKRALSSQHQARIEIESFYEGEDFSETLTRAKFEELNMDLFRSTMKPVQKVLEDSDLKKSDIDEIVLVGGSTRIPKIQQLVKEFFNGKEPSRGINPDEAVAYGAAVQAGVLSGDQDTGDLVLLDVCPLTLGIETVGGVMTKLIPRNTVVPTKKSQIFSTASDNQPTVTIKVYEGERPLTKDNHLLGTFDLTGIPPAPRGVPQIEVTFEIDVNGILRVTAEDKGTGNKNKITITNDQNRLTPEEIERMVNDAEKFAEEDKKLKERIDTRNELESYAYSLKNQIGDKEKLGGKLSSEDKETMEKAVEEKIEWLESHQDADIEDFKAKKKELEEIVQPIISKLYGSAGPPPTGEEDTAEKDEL

Target: GRP78 on the surface of human cells (EAHY, HMVEC, HT1080) (human) (UniProt P11021)
Assay: S-tag-K5 pull-down of biotinylated EAHY surface proteins

binding: binds
B1: N-term-S-tag-Kringle 5 (ligand, human, UniProt P00747 481-560, looked up, not shown: small tags and cut ends)
chain: CMFGNGKGYRGKRATTVTGTPCQDWAAQEPHRHSIFTPETNPRAGLEKNYCRNPDGDVGGPWCYTTNPRKLYDYCDVPQC
